# Source: US20210261621A1, “Preparation of Dilipid Polymixins and Use Thereof as Antimicrobial Adjuvants” (priority 2018, published 2021)
# Values joined by “and” are separate entries in the source; they are usually repeats but may differ in a detail not shown here. Identical values can stand only once. The name of at least one read-out is uncertain.
# Test system: P. aeruginosa PAO1
# Design: unit not given beside the values
# Conditions: antibiotic alone
# Description: The potential of the dilipid polymyxins to serve as an adjuvant in combination with other antibiotics was evaluated against P. aeruginosa PAO1 strain (Tables 4 and 7-12). […] Checkerboard assays were performed with the dilipid polymyxins in combination with twenty-one clinically-used antibiotics. The panel included representatives from the β-lactam, carbapenem, tetracycline, aminoglycoside and fluoroquinolone antibiotic families. Other agents that are used to treat Gram-negative bacterial infection such as fosfomycin, trimethoprim and chloramphenicol were also included. […] Fractional inhibitory concentration (FIC) index was calculated for each combination to measure potential synergism between the two agents. FIC was obtained by dividing the MIC of antibiotic/adjuvant in combination by the MIC of antibiotic/adjuvant alone, while FIC index was calculated by the summation of FIC indices for the antibiotic and adjuvant. An FIC index of ≤0.5, 0.5<x≤4, or >4 denotes for synergistic, additive or antagonistic interaction, respectively. Initially, we assessed the adjuvant properties of PMBN against the panel of 21 antibiotics.
# The assay was performed on 96-well plates as previously described. Briefly, the antibiotic at study was 2-fold serially diluted along the x-axis, while the adjuvant was 2-fold serially diluted along the y-axis to create a matrix in which each well consists of a combination of both at different concentrations. Overnight grown bacterial cultures were diluted in saline to 0.5 McFarland turbidity, followed by 1:50 dilution in MHB and inoculation on each well to a final concentration of approximately 5×10^5 colony forming units/mL. Wells containing only MHB with or without bacterial cells were used as positive or negative control, respectively. […] The fractional inhibitory concentration (FIC) of the antibiotic was calculated via dividing the MIC of antibiotic in the presence of adjuvant by the MIC of antibiotic alone. Similarly, the FIC of adjuvant was calculated via dividing the MIC of adjuvant in the presence of antibiotic by the MIC of adjuvant alone. […]
row,Compound,MICDrug
1,"C[C@@H](O)[C@H]1C(=O)N2C(C(=O)O)=C(S[C@@H]3CN[C@H](C(=O)N(C)C)C3)[C@H](C)[C@H]12 [Meropenem, reference compound]",1 and 0.5
2,"C[C@@H]1O[C@@H]1P(=O)(O)O [Fosfomycin, reference compound]",16 and 32
3,"C[C@H]1c2cccc(O)c2C(=O)C2=C(O)[C@]3(O)C(=O)C(C(N)=O)=C(O)[C@@H](N(C)C)[C@@H]3[C@@H](O)[C@@H]21 [Doxycycline, reference compound]",8 and 16
